Laboratory results: patent US7125969, “ETS-related gene overexpressed in human breast and epithelial cancers” (The Regents of the University of California)
Tags and fusion partners may be left off the protein sequences shown. For some assays here: For at least one entry, the source does not settle the construct or the ends of the probe.

Legend:
[1] = target: T1, ESX (full-length, His-tagged) (Homo sapiens) (UniProt P78545); experiment: footprint; conditions: DNase I footprint with hypersensitive site; ~10 ng protein, room temperature; purified recombinant protein; protein details: His-tag (pRSETA), E. coli BL21(DE3)pLysS; label: antisense strand labeled at SmaI site; only the site is given
T1 sequence: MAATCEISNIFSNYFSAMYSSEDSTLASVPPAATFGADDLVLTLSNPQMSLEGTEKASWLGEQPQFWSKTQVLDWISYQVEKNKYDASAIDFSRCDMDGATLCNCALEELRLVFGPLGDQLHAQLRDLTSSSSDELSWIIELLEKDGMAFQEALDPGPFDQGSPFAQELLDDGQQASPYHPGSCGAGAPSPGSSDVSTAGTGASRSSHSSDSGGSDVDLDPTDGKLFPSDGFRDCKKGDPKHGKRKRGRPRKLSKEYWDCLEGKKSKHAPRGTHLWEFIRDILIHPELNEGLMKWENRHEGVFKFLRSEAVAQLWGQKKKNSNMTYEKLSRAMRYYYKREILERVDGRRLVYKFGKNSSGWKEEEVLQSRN

[2] = target: T2, ESX (full-length, expressed in COS cells) (Homo sapiens) (UniProt P78545); experiment: activity in cells; conditions: CAT reporter induced in COS cells; protein in cells; protein details: pcDNA1/Amp expression; only the site is given
T2 sequence: T1 sequence

ATACTTCCTCAAGCA (double strand)
binding result [1]: binds

GGAGGAGGGCTGCTTGAGGAAGTATAAGAAT (double strand) [3xTA5 reporter (p3TA5-BLCAT5)]
activity on this sequence [2]: active
